PubChem BioAssay AID1259308 – NCATS | 2017
This is a random part of about 59,000 deposited reagents. About 1,510 of all reagents (2.6%) count as active. 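Calls use total luciferase alone and ignore viability, so some active siRNAs may act by altering cell number.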 Further read-outs or replicates are left out here. Reagent sequences are not shown.

Screen: 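Candidate targets for better recombinant protein yield in mammalian cells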 (primary screen)
System: human HEK293 embryonic kidney cells stably expressing firefly luciferase (HEK-CMV-Luc2-Hygro)
Reagent: single siRNA against human genes, 0.8 pmol siRNA per well
Time to read-out: 72 h
Measured: 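Luciferase light (ONE-Glo) measured on one replicate plate set and viability (CellTiter-Glo) on the other, scaled to a negative control siRNA, with robust z-scores and luciferase per cell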
Scale: total luciferase, z-score: higher = more reporter protein produced
Active means: 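Active when the median/MAD z-score for overall luciferase is greater than 3; a gene was taken forward for validation with new siRNAs if at least two of its three siRNAs passed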
Meaning of the calls: active = raised luciferase; inactive = no rise

| gene | PubChem SID | total luciferase, z-score | activity call |
| --- | --- | --- | --- |
| HPR (haptoglobin-related protein) | SID160775290 | -0.111 | inactive |
| HPR (haptoglobin-related protein) | SID160775291 | -0.676 | inactive |
| HPR (haptoglobin-related protein) | SID160775292 | 0.269 | inactive |
| PEX13 (peroxisomal biogenesis factor 13) | SID160714125 | 0.273 | inactive |
| PEX13 (peroxisomal biogenesis factor 13) | SID160714126 | 4.02 | active |
| PEX13 (peroxisomal biogenesis factor 13) | SID160714127 | -1.03 | inactive |
| EPM2AIP1 (EPM2A interacting protein 1) | SID160723254 | -1.08 | inactive |
| EPM2AIP1 (EPM2A interacting protein 1) | SID160723255 | 2.84 | inactive |
| EPM2AIP1 (EPM2A interacting protein 1) | SID160723256 | -0.997 | inactive |
| UBE2N (ubiquitin conjugating enzyme E2 N) | SID160718545 | 0.285 | inactive |
| UBE2N (ubiquitin conjugating enzyme E2 N) | SID160718546 | 1.87 | inactive |
| UBE2N (ubiquitin conjugating enzyme E2 N) | SID160718547 | 0.961 | inactive |
| CDIPT (CDP-diacylglycerol--inositol 3-phosphatidyltransferase) | SID160728386 | 0.505 | inactive |
| CDIPT (CDP-diacylglycerol--inositol 3-phosphatidyltransferase) | SID160728387 | 0.272 | inactive |
| CDIPT (CDP-diacylglycerol--inositol 3-phosphatidyltransferase) | SID160728388 | 1.35 | inactive |
| CMTR1 (cap methyltransferase 1) | SID160735374 | -0.162 | inactive |
| CMTR1 (cap methyltransferase 1) | SID160735375 | 0.135 | inactive |
| CMTR1 (cap methyltransferase 1) | SID160735376 | -0.583 | inactive |
| GALNT17 (polypeptide N-acetylgalactosaminyltransferase 17) | SID160747736 | -0.383 | inactive |
| GALNT17 (polypeptide N-acetylgalactosaminyltransferase 17) | SID160747737 | -1.59 | inactive |
| GALNT17 (polypeptide N-acetylgalactosaminyltransferase 17) | SID160747738 | 0.0568 | inactive |
| LOC642355 (nucleoside diphosphate kinase, mitochondrial-like) | SID160725509 | 0.682 | inactive |
| LOC642355 (nucleoside diphosphate kinase, mitochondrial-like) | SID160725510 | -0.687 | inactive |
| LOC642355 (nucleoside diphosphate kinase, mitochondrial-like) | SID160768469 | -0.643 | inactive |
| TBX6 (T-box transcription factor 6) | SID160717757 | 0.168 | inactive |
| TBX6 (T-box transcription factor 6) | SID160717758 | 1.9 | inactive |
| TBX6 (T-box transcription factor 6) | SID160731813 | 3.21 | active |

Records above marked active (2):
| gene | PubChem SID | total luciferase, z-score | activity call |
| --- | --- | --- | --- |
| PEX13 (peroxisomal biogenesis factor 13) | SID160714126 | 4.02 | active |
| TBX6 (T-box transcription factor 6) | SID160731813 | 3.21 | active |

The results go on.
| gene | PubChem SID | total luciferase, z-score | activity call |
| --- | --- | --- | --- |
| ARHGEF7 (Rho guanine nucleotide exchange factor 7) | SID160721023 | 0.483 | inactive |
| ARHGEF7 (Rho guanine nucleotide exchange factor 7) | SID160721024 | 1.31 | inactive |
| ARHGEF7 (Rho guanine nucleotide exchange factor 7) | SID160721026 | 0.688 | inactive |
| CORO1C (coronin 1C) | SID160736661 | 1.63 | inactive |
| CORO1C (coronin 1C) | SID160736662 | 0.751 | inactive |
| CORO1C (coronin 1C) | SID160736663 | 0.415 | inactive |
| ADGRF3 (adhesion G protein-coupled receptor F3) | SID160730684 | -1.37 | inactive |
| ADGRF3 (adhesion G protein-coupled receptor F3) | SID160760149 | 1.38 | inactive |
| ADGRF3 (adhesion G protein-coupled receptor F3) | SID160760150 | -0.145 | inactive |
| ALPK1 (alpha kinase 1) | SID160750226 | 1.35 | inactive |
| ALPK1 (alpha kinase 1) | SID160750227 | -0.621 | inactive |
| ALPK1 (alpha kinase 1) | SID160750228 | 0.0922 | inactive |
| RASSF2 (Ras association domain family member 2) | SID160723037 | -0.276 | inactive |
| RASSF2 (Ras association domain family member 2) | SID160723038 | 0.913 | inactive |
| RASSF2 (Ras association domain family member 2) | SID160732221 | 1.06 | inactive |
| PAK1IP1 (PAK1 interacting protein 1) | SID160733580 | -1.19 | inactive |
| PAK1IP1 (PAK1 interacting protein 1) | SID160742715 | -1.62 | inactive |
| PAK1IP1 (PAK1 interacting protein 1) | SID160742716 | -0.982 | inactive |
| PRXL2A (peroxiredoxin like 2A) | SID160752081 | 0.528 | inactive |
| PRXL2A (peroxiredoxin like 2A) | SID160752082 | -0.31 | inactive |
| PRXL2A (peroxiredoxin like 2A) | SID160752083 | 0.883 | inactive |
| THAP6 (THAP domain containing 6) | SID160759281 | 1.28 | inactive |
| THAP6 (THAP domain containing 6) | SID160759282 | -0.541 | inactive |
| THAP6 (THAP domain containing 6) | SID160759283 | -0.0652 | inactive |
| LRRC37A4P (leucine rich repeat containing 37 member A4, pseudogene) | SID160726260 | -0.343 | inactive |
| LRRC37A4P (leucine rich repeat containing 37 member A4, pseudogene) | SID160726261 | -0.776 | inactive |
| LRRC37A4P (leucine rich repeat containing 37 member A4, pseudogene) | SID160770712 | 3.93 | active |
| HLA-K (major histocompatibility complex, class I, K (pseudogene)) | SID160726156 | 1.99 | inactive |
| HLA-K (major histocompatibility complex, class I, K (pseudogene)) | SID160770451 | -1.89 | inactive |
| HLA-K (major histocompatibility complex, class I, K (pseudogene)) | SID160770452 | 2 | inactive |
